Values quoted from earlier work in patent publication US8466203B2, “Method of stabilizing human eye tissue by reaction with nitrite and related agents such as nitro compounds” (priority 2006, dated 2013).
Values joined by “and” are separate entries in the source; they are usually repeats but may differ in a detail not shown here. Equal entries are not always repeated. For at least one compound, name, drawing or mass did not settle the structure.

Details: cited from earlier work

Compound	t/2
NCCN(CCN)/[N+]([O-])=N/O [DETA/NONO, diethylenetriaamine NONOate, reference compound]	20 h and 30 h
NCCCN(CCCN)/[N+]([O-])=N/O [DPTA/NONO, dipropylenetriamine NONOate, reference compound]	3 h
